PubChem BioAssay AID652243 | Drosophila RNAi Screening Center – 2013
The deposit covers about 24,000 reagents; this is an unselected part of those that have a named target and a result. In the full data, 246 (1%) are marked active. 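Plates not normalised; calls are printed but the firefly/Renilla ratio behind them is not deposited; fold cut for lowering reported inconsistently.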 The raw values are shown without normalisation. Entries without a mark were called inactive. Reagents against one gene are numbered here. Names joined by + are all predicted targets of the reagent. No sequences are given here. The record does not give: the amount of reagent.

Test: 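Fly genes required for human androgen receptor driven transcription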 (primary screen)
System: Drosophila S2R+ cells
Reagent: long dsRNA against Drosophila genes
Time to read-out: 72 h (48 h, then 24 h hormone)
Challenge: synthetic androgen R1881 at 10 nM for 24 h
Read-out: 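Per-well raw luminescence of the androgen-driven firefly reporter and of the Renilla control, two replicates each, without normalisation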
Scale: firefly reporter light: higher = more light from androgen-responsive reporter; Renilla control light: higher = more constitutive control signal (cell number, transfection)
Rule for the call: 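Hit when the log firefly-to-Renilla ratio dropped or increased by a fixed fold versus the mean of GFP or LacZ controls across duplicate plates; lowering cut given as 1.5 and as 3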
Calls: active = hit: reporter lowered or raised; inactive = no hit

The opening 2 records, to show the layout:
| Gene | reagent no. | firefly reporter light, replicate 1 | firefly reporter light, replicate 2 | Renilla control light, replicate 1 | Renilla control light, replicate 2 |
| --- | --- | --- | --- | --- | --- |
| rgr (GeneID 35843) | 1 | 8.19e5 | 1.02e6 | 2.36e6 | 2.30e6 |
| rgr (GeneID 35843) | 2 | 9.45e5 | 1.12e6 | 1.02e6 | 1.04e6 |

The listing, from the first entry:
| Gene | reagent no. | firefly reporter light, replicate 1 | firefly reporter light, replicate 2 | Renilla control light, replicate 1 | Renilla control light, replicate 2 |
| --- | --- | --- | --- | --- | --- |
| rgr (GeneID 35843) | 1 | 8.19e5 | 1.02e6 | 2.36e6 | 2.30e6 |
| rgr (GeneID 35843) | 2 | 9.45e5 | 1.12e6 | 1.02e6 | 1.04e6 |
| CG15740 (GeneID 32139) | 1 | 4.87e5 | 5.57e5 | 1.48e6 | 1.54e6 |
| CG15740 (GeneID 32139) | 2 | 3.68e5 | 4.15e5 | 1.57e6 | 1.65e6 |
| CG15740 (GeneID 32139) | 3 | 7.66e5 | 7.57e5 | 1.69e6 | 1.93e6 |
| Cfp1 (GeneID 31880) | 1 | 2.31e5 | 2.33e5 | 2.10e6 | 2.75e6 |
| SdhB (GeneID 35590) | 1 | 5.92e5 | 8.46e5 | 1.73e6 | 2.43e6 |
| SdhB (GeneID 35590) | 2 | 5.43e5 | 4.50e5 | 4.84e5 | 4.38e5 |
| CG10516 (GeneID 39738) | 1 | 2.38e5 | 2.07e5 | 1.67e6 | 1.50e6 |
| CG14591 (GeneID 35531) | 1 | 3.63e5 | 3.87e5 | 2.68e6 | 2.76e6 |
| CG42518 + MED9 | 1 | 1.13e6 | 8.43e5 | 1.20e6 | 1.06e6 |
| Ipk2 (GeneID 33236) | 1 | 91109 | 89620 | 5.70e5 | 6.30e5 |
| Ipk2 (GeneID 33236) | 2 | 5.08e5 | 5.78e5 | 5.15e5 | 5.20e5 |
| Alg2 (GeneID 38374) | 1 | 1.35e6 | 1.33e6 | 1.86e6 | 1.38e6 |
| CG6834 (GeneID 41409) | 1 | 1.55e5 | 2.29e5 | 1.69e6 | 2.01e6 |
| CG6834 (GeneID 41409) | 2 | 9.26e5 | 7.51e5 | 1.97e6 | 1.97e6 |
| CG18213 (GeneID 42055) | 1 | 1.96e5 | 2.44e5 | 3.09e6 | 3.52e6 |
| ND-B16.6 (GeneID 31578) | 1 | 2.14e5 | 2.63e5 | 2.26e6 | 3.28e6 |
| ND-B16.6 (GeneID 31578) | 2 | 6.74e5 | 6.35e5 | 8.78e5 | 7.15e5 |
| ND-B16.6 (GeneID 31578) | 3 | 2.69e5 | 2.75e5 | 8.20e5 | 8.39e5 |
| ATPsynCF6 (GeneID 42759) | 1 | 1.93e5 | 2.74e5 | 2.59e6 | 2.61e6 |
| CG3156 (GeneID 30994) | 1 | 71708 | 91357 | 7.41e5 | 5.44e5 |
| CG3156 (GeneID 30994) | 2 | 1.07e6 | 6.28e5 | 3.78e6 | 1.74e6 |
| SecCl (GeneID 39949) | 1 | 1.94e5 | 1.42e5 | 2.29e6 | 8.46e5 |
